From paper PMC4222359
Results are given in words; binding and its absence hold for the method and conditions named. In cells and extracts the contact can be indirect. These calls come from enrichment with a bait or labelling near it, and not all partners need be listed. A no says only that the protein was not detected with the bait. Where a sequence is shown, tags or fusion partners need not be part of it.

The chains behind the UniProt entries cited, without tags or fusion partners.
UniProt P54098: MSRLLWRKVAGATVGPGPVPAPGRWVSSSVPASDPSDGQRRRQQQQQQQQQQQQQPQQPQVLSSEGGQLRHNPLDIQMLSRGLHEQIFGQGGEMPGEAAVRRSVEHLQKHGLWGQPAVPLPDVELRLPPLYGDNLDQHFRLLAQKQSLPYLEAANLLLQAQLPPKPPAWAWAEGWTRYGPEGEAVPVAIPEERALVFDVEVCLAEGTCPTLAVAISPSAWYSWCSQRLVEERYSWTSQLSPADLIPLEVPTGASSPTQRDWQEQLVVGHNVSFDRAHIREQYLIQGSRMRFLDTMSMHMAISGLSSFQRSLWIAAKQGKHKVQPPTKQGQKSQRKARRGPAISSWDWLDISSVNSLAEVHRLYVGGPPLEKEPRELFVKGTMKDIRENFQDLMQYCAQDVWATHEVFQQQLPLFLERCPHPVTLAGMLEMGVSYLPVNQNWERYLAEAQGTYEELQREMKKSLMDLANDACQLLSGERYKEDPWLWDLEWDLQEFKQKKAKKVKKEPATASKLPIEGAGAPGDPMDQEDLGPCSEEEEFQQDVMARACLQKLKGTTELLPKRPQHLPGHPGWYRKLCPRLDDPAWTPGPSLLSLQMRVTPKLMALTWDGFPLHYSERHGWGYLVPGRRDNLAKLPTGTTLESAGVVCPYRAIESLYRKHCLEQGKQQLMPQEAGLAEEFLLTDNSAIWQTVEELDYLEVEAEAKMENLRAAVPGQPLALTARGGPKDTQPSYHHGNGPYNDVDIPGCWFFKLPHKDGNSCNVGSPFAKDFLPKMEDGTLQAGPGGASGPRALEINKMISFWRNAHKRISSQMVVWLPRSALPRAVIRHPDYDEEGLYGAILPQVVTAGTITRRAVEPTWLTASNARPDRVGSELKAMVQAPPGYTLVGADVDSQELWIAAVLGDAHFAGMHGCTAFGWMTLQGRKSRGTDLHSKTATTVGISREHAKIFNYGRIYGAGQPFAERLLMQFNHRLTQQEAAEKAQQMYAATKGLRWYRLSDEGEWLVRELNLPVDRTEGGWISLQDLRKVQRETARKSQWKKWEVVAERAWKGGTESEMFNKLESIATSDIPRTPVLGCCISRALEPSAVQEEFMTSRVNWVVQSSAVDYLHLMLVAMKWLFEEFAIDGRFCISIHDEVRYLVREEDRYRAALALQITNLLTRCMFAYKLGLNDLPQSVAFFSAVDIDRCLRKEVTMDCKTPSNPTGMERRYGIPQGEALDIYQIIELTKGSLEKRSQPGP

T1: MGME1.Flag (human) (UniProt Q9BQP7)
T1 sequence: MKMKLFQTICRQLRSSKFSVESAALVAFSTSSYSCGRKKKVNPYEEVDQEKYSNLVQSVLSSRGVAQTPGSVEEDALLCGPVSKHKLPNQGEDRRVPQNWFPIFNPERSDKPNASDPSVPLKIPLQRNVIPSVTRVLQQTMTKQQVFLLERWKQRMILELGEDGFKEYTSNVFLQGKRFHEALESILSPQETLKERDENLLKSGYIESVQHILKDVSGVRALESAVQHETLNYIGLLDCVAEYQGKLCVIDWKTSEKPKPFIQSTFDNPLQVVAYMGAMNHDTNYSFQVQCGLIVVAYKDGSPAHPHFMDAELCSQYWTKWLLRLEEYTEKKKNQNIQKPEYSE

T2: MGME1.Flag (human), Q9BQP7
T2 chain: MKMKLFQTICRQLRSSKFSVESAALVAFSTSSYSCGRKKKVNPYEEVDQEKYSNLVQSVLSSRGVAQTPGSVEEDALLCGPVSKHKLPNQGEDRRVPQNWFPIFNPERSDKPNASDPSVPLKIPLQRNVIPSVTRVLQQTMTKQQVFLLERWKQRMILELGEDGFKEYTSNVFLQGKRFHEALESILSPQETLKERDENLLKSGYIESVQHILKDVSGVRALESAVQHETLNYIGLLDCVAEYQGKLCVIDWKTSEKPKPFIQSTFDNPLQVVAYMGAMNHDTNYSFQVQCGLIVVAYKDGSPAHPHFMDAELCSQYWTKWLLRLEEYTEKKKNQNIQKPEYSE


What was measured:
[1] = target: T1, MGME1.Flag (human); test: affinity purification with mass spectrometry; MGME1.Flag as bait from extracts of isolated HEK293T mitochondria, anti-Flag beads; five bait purifications and one control purification (untransfected parental cells); label-free LC-MS of eluates
[2] = target: T2, MGME1.Flag (human), Q9BQP7; test: as above; conditions: remark: other sources report otherwise

binding [1] | binding [2] | Molecule
binds | – | PolgA (from UniProt P54098 1-1239) (enzyme)
– | no binding | TFAM, Q00059 43-246 (protein) SSVLASCPKKPVSSYLRFSKEQLPIFKAQNPDAKTTELIRRIAQRWRELPDSKKKIYQDAYRAEWQVYKEEISRFKEQLTPSQIMSLEKEIMDKHLKRKAMTKKKELTLLGKPKRPRSAYNVYVAERFQEAKGDSPQEKLKTVKENWKNLSDSEKELYIQHAKEDETRYHNEMKSWEEQMIEVGRKDLLRRTIKKQRKYGAEEC
no binding | – | mtSSB (protein, UniProt Q04837 17-148) ESETTTSLVLERSLNRVHLLGRVGQDPVLRQVEGKNPVTIFSLATNEMWRSGDSEVYQLGDVSQKTTWHRISVFRPGLRDVAYQYVKKGSRIYLEGKIDYGEYMDKNNVRRQATTIIADNIIFLSDQTKEKE
